No constants are given. Whether binding was seen depends on the method and setting. In cells and extracts the contact can be indirect. Some binding calls cover weakened binding; strength is not graded here.
Target: lamin A/C (mouse (endogenous in immortalized murine dermal fibroblasts)) (UniProt P48678)
Experiment: co-IP; endogenous proteins in the soluble lysate of Tmpo WT imMDFs; IP buffer 20 mM Tris-HCl pH 7.5, 150 mM NaCl, 2 mM EGTA, 2 mM MgCl2, 1 mM DTT, 0.5% NP-40, Benzonase; antibodies (lamin A/C N18 or 3A6, LAP2alpha 8C10-1H11, rabbit IgG control) overnight at 4°C; magnetic protein A/G beads; Western blot

Amino acid sequences for entries named in this document (tags omitted). Residues count along the entry.
UniProt P48678, residues 1-647: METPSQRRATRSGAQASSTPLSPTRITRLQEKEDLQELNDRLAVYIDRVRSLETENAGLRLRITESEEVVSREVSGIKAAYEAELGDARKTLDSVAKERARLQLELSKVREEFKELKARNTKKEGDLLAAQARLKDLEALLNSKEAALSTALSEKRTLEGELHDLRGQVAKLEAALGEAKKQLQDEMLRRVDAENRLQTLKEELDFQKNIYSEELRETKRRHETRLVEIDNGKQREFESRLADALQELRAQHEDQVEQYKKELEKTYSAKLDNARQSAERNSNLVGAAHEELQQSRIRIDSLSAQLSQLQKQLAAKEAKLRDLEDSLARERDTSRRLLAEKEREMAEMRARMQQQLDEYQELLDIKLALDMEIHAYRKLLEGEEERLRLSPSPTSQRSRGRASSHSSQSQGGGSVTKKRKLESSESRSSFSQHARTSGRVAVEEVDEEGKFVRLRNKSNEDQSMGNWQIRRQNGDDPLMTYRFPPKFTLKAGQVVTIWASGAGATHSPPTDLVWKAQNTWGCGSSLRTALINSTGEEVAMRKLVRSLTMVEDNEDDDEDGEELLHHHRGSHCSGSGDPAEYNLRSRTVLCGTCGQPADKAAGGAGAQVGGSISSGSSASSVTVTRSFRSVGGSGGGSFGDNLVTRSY

B1: lamina-associated polypeptide 2 alpha (protein, UniProt Q61033 1-693)
chain: MPEFLEDPSVLTKDKLKSELVANNVTLPAGEQRKDVYVQLYLQHLTARNRPPLAAGANSKGPPDFSSDEEREPTPVLGSGASVGRGRGAVGRKATKKTDKPRLEDKDDLDVTELSNEELLDQLVRYGVNPGPIVGTTRKLYEKKLLKLREQGTESRSSTPLPTVSSSAENTRQNGSNDSDRYSDNDEGKKKEHKKVKSARDCVPFSELASTPSGAFFQGISFPEISTRPPLGRTELQAAKKVQTTKRDPPRETCTDTALPGKGQTHKLAPGRSLFIPSESSYDRCVEKSSSPSSQREFAARLVSAAASPSLIRETTTTYSKDIVENICRGGKSRAQPLRAEEPGVSDQSVFSSEREVLQESERSQVISPPLAQAIRDYVNSLLVQGGVGSLPGTSDSVPTLDVENICKRLSQSSYQDSESLSPPRKVPRLSEKPARGGDSGSCVAFQNTPGSEHRSSFAKSVVSHSLTTLGVEVSKPPPQHDKIEASEPSFPLHESILKVVEEEWQQIDRQLPSVACRYPVSSIEAARILSVPKVDDEILGFISEATPRAATQASSTESCDKHLDLALCRSYEAAASALQIAAHTAFVAKSLQADISQAAQIINSDPSDAQQALRILNRTYDAASYLCDAAFDEVRMSACAMGSSTMGRRYLWLKDCKISPASKNKLTVAPFKGGTLFGGEVHKVIKKRGNKQ
  binding: binds

— PMC4817770
